# From PubChem BioAssay AID1688 (National Center for Advancing Translational Sciences (NCATS), 2009)
# Hit rate of the full screen: of about 220,000 compounds, about 2,400 (1.1%) were called active. This list was built around the results that the source calls inconclusive (neither active nor inactive); the mix of calls is not that of the screen. Calls follow the shape of the dose curve; as a rule, active = well fitted inhibition curve with a large enough effect; inconclusive = small, poorly fitted or top-dose-only effect, or effect the other way; inactive = no such curve, though single readings can be large or run the other way. A potency beside an inconclusive call is a rough fit, not a confirmed value.
# Experiment: qHTS Multiplex Assay to Identify Dual Action Probes in a Cell Model of Huntington: Aggregate Formation (GFP); also: nearly all actives have a fitted effect of over 60% in size
# Conditions: PC12 HttQ103-GFP aggregates, Acumen cytometry, 40 h; activity change, negative = inhibition: at 46.1 µM (top of the series) unless noted
# Outline: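 Compounds (qHTS titration) were added to PC12 cells expressing an ecdysone-driven HTT exon 1 Q103–GFP fusion after induction with 100 nM tebufenozide. Aggregate formation was measured as GFP objects in cell lysates.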
# % is scaled to controls: 0 for no effect and ±100 for the full control effect; potency is read from the fitted curve at half-maximal effect.
SMILES,Potency,"activity change, negative = inhibition"
CN(Cc1nc(-c2ccncc2)no1)S(=O)(=O)c1ccccc1,"inconclusive: 1.26 µM [inhibitor, partial curve]",
Cc1ccc(Cc2cnc(N)s2)o1,"inconclusive: 35.5 µM [inhibitor, single point]",
Cc1c(Cl)cccc1NC(=S)NC(=O)CCN1C(=O)c2ccccc2C1=O,inactive,
Cc1ccc(C)n1-c1ccc(C(=O)Nc2ccccc2)cc1,"inconclusive: 35.5 µM [activator, single point]",
CCC(C)[C@H](NC(=O)Nc1ccc(S(N)(=O)=O)cc1)C(=O)OC (stereo partly drawn),,inactive: -17.7% [at 9.22 µM]
FC(F)(F)c1nc(-c2cccnc2)ncc1-c1nnnn1-c1ccccc1,"inconclusive: 35.5 µM [inhibitor, single point]",
C=CCn1c(NC(C)c2cc(Cl)ccc2O)nc2ccccc21 (stereo not drawn),active: 11.2 µM,
CC1=CC(C)(C)Nc2ccc(OC(=O)CN3C(=O)CCC3=O)cc21,active: 6.31 µM,
O=C(NC(=S)Nc1cccc(NC(=S)NC(=O)c2ccco2)n1)c1ccco1,"inconclusive: 20 µM [activator, partial curve, poor fit]",
Cc1cc(C)cc(NC(=S)NCCSc2ccc(Cl)cc2)c1,"inconclusive: 35.5 µM [inhibitor, single point]",
COc1ccccc1CN(Cc1nc2ccccc2c(=O)[nH]1)C(=O)Nc1ccc(C)cc1,inactive,
COc1ccc(Cl)cc1C(=O)NNC(=S)NC(=O)/C=C/c1ccco1,"inconclusive: 17.8 µM [inhibitor, single point]",
CCOC(=O)NCC(C#CCN(CC)CC)N(CC)CC (stereo not drawn),inactive,
CN(CC(=O)N1CCN(c2ncccn2)CC1)S(=O)(=O)c1ccc(Cl)cc1,"inconclusive: 3.16 µM [inhibitor, single point]",
CC(C)[C@H](Nc1ccc(S(=O)(=O)N2CCOCC2)cc1[N+](=O)[O-])C(=O)OCC(=O)N(C(C)C)C(C)C,inactive,
NC(=O)c1ccc(NC(=O)CSC2=Nc3ccccc3C3CC=NN23)cc1 (stereo not drawn),"inconclusive: 12.6 µM [activator, partial curve]",
CC(=C/c1ccco1)/C=N/NC(=O)CSc1nnc(SCc2ccc(C)cc2)s1,"inconclusive: 11.2 µM [activator, partial curve]",
CCCCCCCCCCOC(=O)NC1CCS(=O)(=O)C1 (stereo not drawn),"inconclusive: 11.2 µM [inhibitor, single point]",
COc1ccccc1-c1cc(C(=O)NCc2cccs2)no1,inactive,
Cc1ccccc1-n1cc(C(=O)c2cc(Cl)ccc2O)cc(C#N)c1=O,"inconclusive: 35.5 µM [inhibitor, partial curve]",
CCOc1ccc(Br)cc1S(=O)(=O)Nc1ccc(NC(=O)c2ccccc2F)cc1,"inconclusive: 10 µM [activator, partial curve]",
CCOC(=O)c1[nH]c2ccc(OC)cc2c1NC(=S)N1CCN(c2cccc(C)c2C)CC1,inactive,

SMILES,Potency,"activity change, negative = inhibition"
CCCN(CCC)CCCNC(=S)Nc1ccc2nc(N3CCN(CC)CC3)cc(C)c2c1,"inconclusive: 35.5 µM [inhibitor, single point]",
Cc1ccc(S(=O)(=O)N2CCN(CC(=O)N/N=C/C=C/c3ccccc3)CC2)cc1,"inconclusive: 6.31 µM [activator, partial curve]",
O=[N+]([O-])c1ccc2nc(/C=C/c3ccc(Cl)cc3)[nH]c2c1,"inconclusive: 15.8 µM [inhibitor, single point]",
Cc1cccc(N2CCN(C(=O)c3cc4c(=O)n(C)c5ccccc5c4n3C)CC2C)c1 (stereo not drawn),"inconclusive: 35.5 µM [inhibitor, single point]",
CSc1nc(-c2ccco2)cc(-c2ccccc2)c1C#N,inactive,
COc1ccc(C(C[N+](=O)[O-])c2c(-c3ccccc3)cc3ccccn23)cc1OC (stereo not drawn),"inconclusive: 3.16 µM [activator, full curve, poor fit]",
Cc1oc(-c2ccccc2F)nc1CS(=O)(=O)CC(=O)N1CCOCC1,inactive,
COc1ccc2[nH]c(=O)c(CN(CCO)C(=O)c3ccccc3F)cc2c1,inactive,
CN(C)S(=O)(=O)c1ccc(Cl)c(NC(=O)CN2CCNC(=O)C2)c1,inactive,
Cc1cccc(NC(=O)COC(=O)c2cc(C)oc2C)c1,active: 12.6 µM,
CCN(CC)CCN1C(=O)C(=O)/C(=C(/O)c2c(C)[nH]c(C(=O)OC)c2C)C1c1ccccc1OC (stereo not drawn),"inconclusive: 0.794 µM [activator, full curve, poor fit]",
O=C1c2cccc3c(N4CCCCC4)ccc(c23)C(=O)N1c1cccc(O)c1,"inconclusive: 7.94 µM [inhibitor, partial curve]",
Cc1ccc(C(=O)c2coc3cc([N+](=O)[O-])c(O)c([N+](=O)[O-])c23)cc1,inactive,
O=C(COC(=O)c1cc2ccccc2o1)c1ccccc1,"inconclusive: 31.6 µM [activator, partial curve]",
Cc1cc(C2=NNC(=NC3CC3)SC2)c(C)n1Cc1ccco1,"inconclusive: 3.16 µM [activator, full curve]",
Cc1ccc(C(=O)c2c(C)oc3c2C(=O)C(=O)c2ccccc2-3)cc1,"inconclusive: 35.5 µM [inhibitor, single point]",
CC1=NN(c2ccc(Cl)cc2)C(=O)C1C(c1cccc(O)c1)c1c(C)[nH]n(-c2ccc(Cl)cc2)c1=O (stereo not drawn),active: 12.6 µM,
Cc1ccc(S(=O)(=O)/C(C#N)=C/c2c(N3CCC(C(N)=O)CC3)nc3c(C)cccn3c2=O)cc1,inactive,
CCC(C)C1NC(=O)C(CCNCS(=O)(=O)O)NC(=O)C(NC(=O)C(CCNCS(=O)(=O)O)NC(=O)C(NC(=O)C(CCNCS(=O)(=O)O)NC(=O)CCCCC(C)C)C(C)O)CCNC(=O)C(C(C)O)NC(=O)C(CCNCS(=O)(=O)O)NC(=O)C(CCNCS(=O)(=O)O)NC(=O)C(C(C)CC)NC1=O (stereo not drawn),inactive,
CCc1ccc(N(CC(=O)Nc2ccc(OC)cc2OC)S(C)(=O)=O)cc1,"inconclusive: 1.26 µM [activator, single point]",
O=C(CCNC(=O)c1ccccc1Cl)Nc1ccc(Br)c(C(F)(F)F)c1,"inconclusive: 3.16 µM [inhibitor, partial curve]",

# Single records (already shown).
# `O=C(CCNC(=O)c1ccccc1Cl)Nc1ccc(Br)c(C(F)(F)F)c1` as listed: Potency: inconclusive: 3.16 µM [inhibitor, partial curve]
# `CCC(C)C1NC(=O)C(CCNCS(=O)(=O)O)NC(=O)C(NC(=O)C(CCNCS(=O)(=O)O)NC(=O)C(NC(=O)C(CCNCS(=O)(=O)O)NC(=O)CCCCC(C)C)C(C)O)CCNC(=O)C(C(C)O)NC(=O)C(CCNCS(=O)(=O)O)NC(=O)C(CCNCS(=O)(=O)O)NC(=O)C(C(C)CC)NC1=O` (stereo not drawn) as listed: Potency: inactive
